The inconclusive results got no clear call from the source; some entries with a clear call stand among them for comparison. For part of these data: Potencies of inconclusive entries are doubtful fits and often do not repeat. Active and inactive are the calls of the source. Unless noted, no cut-off is given here; in the data, nearly all actives have AC50 up to about 26 µM.
What was measured:
[1] = growth inhibition of DIPG glioma cells, dose response, cell-based, SU-DIPG-XVII, MIPE5.0, CellTiter-Glo, qHTS (AID 1347060); conditions: SU-DIPG-XVII viability, CellTiter-Glo ATP luminescence;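 for AC50: cells exposed to compound for 48 hours before viability readout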
[2] = viability loss in pontine glioma line – cell-based, SU-DIPG-XXV, MIPE5.0, CellTiter-Glo, qHTS, dose response (AID 1347065); conditions: CellTiter-Glo ATP luminescence;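 note: cells exposed to compound for 48 hours before ATP readout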
[3] = JHH-DIPG-1 glioma cell viability, MIPE5.0 library, CellTiter-Glo luminescence, qHTS (AID 1347067); conditions: JHH-DIPG-1 glioma viability, CellTiter-Glo ATP luminescence;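 note: cells exposed to compound for 48 hours before readout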
[4] = SU-DIPG-XXV glioma cell viability, MIPE5.0 library, qHTS (AID 1347068; cut-off not given, nearly all actives have IC50 up to about 30 µM;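 for IC50: cells exposed to compound for 48 hours before viability readout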)
[5] = inhibitors of polyQ aggregate elongation, biochemical, solid-phase synthetic aggregates, QA3 (AID 1585; call rule not given here); conditions: biotin-polyQ incorporation, at 100 µM, active compounds read high
[6] = polyglutamine aggregation reduction, turbidity readout, qthio, single concentration 25 µM screen (AID 1588; call rule not given here); conditions: at 25 µM, active compounds read low
[7] = enhancers of SMN2 over SMN1 splicing, cell-based, SMN2/SMN1 luciferase reporters (AID 1598; call rule not given here); conditions: SMN2 vs SMN1 luciferase splicing reporter cells; at 10 µM; active compounds read high
[8] = growth inhibition of DIPG glioma cells, dose response, cell-based, SU-DIPG-XIII, MIPE4.0, CellTiter-Glo, qHTS (AID 1347061; cut-off not given, nearly all actives have AC50 up to about 37 µM;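 note: cells exposed to compound for 48 hours before readout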); conditions: SU-DIPG-XIII viability, CellTiter-Glo ATP luminescence
[9] = growth inhibition of DIPG glioma cells, dose response, cell-based, JHH-DIPG-1, MIPE4.0, CellTiter-Glo, qHTS (AID 1347062; cut-off not given, nearly all actives have AC50 up to about 27 µM;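 for AC50: cells exposed to compound for two days before readout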); conditions: JHH-DIPG-1 viability, CellTiter-Glo ATP luminescence
[10] = growth inhibition of DIPG glioma cells, dose response, cell-based, SU-DIPG-IV, MIPE4.0, CellTiter-Glo, qHTS (AID 1347063; cut-off not given, nearly all actives have AC50 up to about 30 µM;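 note: compound exposure lasted 48 hours before the viability readout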); conditions: SU-DIPG-IV viability, CellTiter-Glo ATP luminescence
[11] = target: ATP-dependent translocase ABCB1 (Homo sapiens) (UniProt P08183); experiment: MDR1 (ABCB1) efflux transporter inhibition, cell-based (AID 377; in the data active = fluorescence slope change above about 50%; inconclusive = mostly about 31% to 49%); conditions: MDR1-expressing cells, fluorescent substrate accumulation slope; active compounds read high; concentration not given here
[12] = mitochondrial permeability transition inhibitors (AID 1580; call rule not given here); conditions: isolated mitochondria, permeability transition inhibition; active call at 10 uM (0/1): at 10 µM, active compounds read high

Amino acid sequences for entries named in this document (tags omitted).
UniProt P08183, whole entry, looked up: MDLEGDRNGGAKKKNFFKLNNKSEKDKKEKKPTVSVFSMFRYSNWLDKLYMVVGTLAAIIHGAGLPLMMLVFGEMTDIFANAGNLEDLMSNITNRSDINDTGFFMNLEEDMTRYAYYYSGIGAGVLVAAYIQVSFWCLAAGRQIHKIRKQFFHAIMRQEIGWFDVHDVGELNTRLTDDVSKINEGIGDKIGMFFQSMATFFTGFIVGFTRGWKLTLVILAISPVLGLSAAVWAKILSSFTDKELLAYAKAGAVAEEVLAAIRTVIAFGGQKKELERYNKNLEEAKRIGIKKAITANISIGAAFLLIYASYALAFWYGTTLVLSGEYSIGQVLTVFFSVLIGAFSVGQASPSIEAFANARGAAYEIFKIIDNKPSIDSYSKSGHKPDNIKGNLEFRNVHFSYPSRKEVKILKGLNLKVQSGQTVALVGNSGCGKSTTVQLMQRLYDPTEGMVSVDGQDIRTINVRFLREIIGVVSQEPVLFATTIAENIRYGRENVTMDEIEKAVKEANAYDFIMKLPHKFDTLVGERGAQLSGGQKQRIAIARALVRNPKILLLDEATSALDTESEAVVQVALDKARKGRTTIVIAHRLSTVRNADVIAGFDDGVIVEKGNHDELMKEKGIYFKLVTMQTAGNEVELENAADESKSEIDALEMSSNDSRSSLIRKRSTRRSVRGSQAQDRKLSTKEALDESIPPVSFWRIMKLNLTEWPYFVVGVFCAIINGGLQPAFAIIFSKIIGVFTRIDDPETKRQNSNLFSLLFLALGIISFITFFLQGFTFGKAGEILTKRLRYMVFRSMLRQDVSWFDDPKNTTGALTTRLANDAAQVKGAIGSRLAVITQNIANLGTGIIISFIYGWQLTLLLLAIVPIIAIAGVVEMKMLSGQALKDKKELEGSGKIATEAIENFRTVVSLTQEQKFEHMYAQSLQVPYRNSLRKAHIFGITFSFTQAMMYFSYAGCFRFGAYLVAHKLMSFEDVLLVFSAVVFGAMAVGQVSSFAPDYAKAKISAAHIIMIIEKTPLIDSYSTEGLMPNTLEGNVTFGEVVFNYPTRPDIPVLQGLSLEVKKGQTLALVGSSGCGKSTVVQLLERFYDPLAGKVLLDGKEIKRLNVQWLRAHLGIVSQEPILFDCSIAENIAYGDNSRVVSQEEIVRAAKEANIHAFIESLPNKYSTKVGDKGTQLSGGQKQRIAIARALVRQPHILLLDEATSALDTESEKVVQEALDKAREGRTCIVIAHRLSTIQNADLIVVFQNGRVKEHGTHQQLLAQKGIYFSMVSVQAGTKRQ

With CCC(C)C(N)C1=NC(C(=O)N[C@@H](CC(C)C)C(=O)N[C@H](CCC(=O)O)C(=O)N[C@H](C(=O)N[C@H]2CCCCNC(=O)[C@H](CC(N)=O)NC(=O)[C@@H](CC(=O)O)NC(=O)[C@H](Cc3cnc[nH]3)NC(=O)[C@@H](Cc3ccccc3)NC(=O)[C@H]([C@@H](C)CC)NC(=O)[C@@H](CCCN)NC2=O)[C@@H](C)CC)CS1 (stereo partly specified) the AC50 [1] was inconclusive: 8.11 µM [cytotoxic], the outcome [2] was “inactive” and the outcome [3] was “inactive”.

In the case of O=C(c1ccc(NS(=O)(=O)c2cccc3cccnc23)cc1)N1CCN(CC2CC2)CC1, the outcome [1] is reported as “inactive” and the AC50 [3] is reported as inconclusive: 20.9 µM [cytotoxic].

With Cn1ncc(Cl)c1-c1cc(C(=O)N[C@H](CN)Cc2cccc(F)c2)sc1Cl the AC50 [1] was active: 5.9 µM and the AC50 [3] was inconclusive: 18.6 µM [cytotoxic].

With C[C@@]1(c2ncncc2F)NC(=O)c2cc(-c3cn[nH]c3)ccc21 the outcome [1] was “inactive”, the AC50 [2] was inconclusive: 18.6 µM [cytotoxic] and the outcome [3] was “inactive”.

For C=C1[C@H](OC(=O)/C=C(\C)CC)C[C@@H](C(C)C)[C@@H]2[C@H]([C@@H](C)OC(C)=O)C(=O)C[C@@H]12, the AC50 [1] was inconclusive: 0.417 µM [cytotoxic], the AC50 [2] was inconclusive: 33.2 µM [cytotoxic] and the outcome [4] was “inactive”.

For CC#Cc1cncc(-c2ccc3c(c2)[C@@]2(N=C(C)C(N)=N2)C2(CCC(OC)CC2)C3)c1 (stereo partly specified), the outcome [1] was “inactive”, the AC50 [2] was inconclusive: 2.09 µM [cytotoxic] and the AC50 [3] was inconclusive: 5.9 µM.

In the case of C[C@@H](Nc1ncnc2[nH]c(-c3ccc(O)cc3)cc12)c1ccccc1, the AC50 [1] is reported as inconclusive: 7.42 µM [cytotoxic], the AC50 [2] is reported as inconclusive: 16.6 µM [cytotoxic] and the AC50 [3] is reported as inconclusive: 16.6 µM [cytotoxic].

For Cc1c(Cl)cccc1S(=O)(=O)Nc1nc(CCN2CCOCC2=O)cs1, the AC50 [1] was inconclusive: 0.00166 µM and the AC50 [3] was inconclusive: 0.0148 µM [cytotoxic].

In the case of NC(CO)C(=O)NNCc1ccc(O)c(O)c1O (stereo unspecified), the inhibition [5] is reported as inconclusive: 29.7%, the aggregation (% of control) [6] is reported as inconclusive: 106% and the SMN2/SMN1 luciferase ratio [7] is reported as inconclusive: 0.92. The outcome [1] was “inactive”.

For CCN(C)C(=O)Oc1cccc([C@H](C)N(C)C)c1, the outcome [8] was “inactive”, the outcome [9] was “inactive” and the AC50 [10] was inconclusive: 5.9 µM [cytotoxic].

For CN1C(=O)N[C@H](Cc2c[nH]c3c(Cl)cccc23)C1=O, the AC50 [1] was inconclusive: 7.42 µM [cytotoxic], the outcome [3] was “inactive” and the IC50 [4] was inconclusive: 0.00118 µM.

With CN(C)/[N+]([O-])=N/Oc1cc(ON[N+](=O)N2CCN(C(=O)c3cc(Cc4n[nH]c(=O)c5ccccc45)ccc3F)CC2)c([N+](=O)[O-])cc1[N+](=O)[O-] the AC50 [8] was active: 20.9 µM, the AC50 [9] was active: 13.2 µM and the AC50 [10] was inconclusive: 37.2 µM [cytotoxic].

With COc1cc(O)c2c(c1)C(=O)c1cc(C)cc(O)c1C2=O the outcome [8] was “inactive”, the outcome [9] was “inactive” and the AC50 [10] was inconclusive: 0.144 µM [cytotoxic].

In the case of Cc1ccnc2c1NC(=O)c1cccnc1N2C1CC1, the AC50 [8] is reported as inconclusive: 6.62 µM [cytotoxic], the AC50 [9] is reported as inconclusive: 18.7 µM [cytotoxic] and the AC50 [10] is reported as active: 16.6 µM.

For Cc1[nH]c2ccc(F)cc2c1-c1nc2c3cccnc3c3ncccc3c2[nH]1, the AC50 [1] was active: 6.79 µM, the AC50 [3] was inconclusive: 4.28 µM [cytotoxic] and the IC50 [4] was active: 2.7 µM.

For Nc1nc2cc(-c3ccc4ncc(C(=O)N5CCOCC5)n4c3)ccc2o1, the AC50 [1] was active: 18.6 µM and the IC50 [4] was inconclusive: 10.5 µM [cytotoxic].

For CC(=O)N(O)CCCCCNC(=O)CCC(=O)N(O)CCCCCNC(=O)CCC(=O)N(O)CCCCCN, the fluorescence slope change [11] was inconclusive: 34%, the active call at 10 uM (0/1) [12] was inconclusive: -1 and the inhibition [5] was inconclusive: -0.08%. For the same compound, the aggregation (% of control) [6] was inconclusive: 97.4%, the SMN2/SMN1 luciferase ratio [7] was inconclusive: 0.94 and the AC50 [1] was inconclusive: 0.295 µM [cytotoxic]. For the same compound, the AC50 [3] was inconclusive: 6.61 µM [cytotoxic].

In the case of CN(C1CCc2c(c3ccccc3n2CC(=O)O)C1)S(=O)(=O)c1ccc(F)cc1 (stereo unspecified), the outcome [8] is reported as “inactive”, the AC50 [9] is reported as inconclusive: 1.87 µM [cytotoxic] and the AC50 [10] is reported as inconclusive: 0.662 µM [cytotoxic].

In the case of CCOc1cc(C(C)(C)C)ccc1C1=N[C@@](C)(c2ccc(Cl)cc2)[C@@](C)(c2ccc(Cl)cc2)N1C(=O)N1CCN(CC(=O)N2CCOCC2)CC1, the AC50 [1] is reported as active: 11.5 µM, the AC50 [3] is reported as inconclusive: 23 µM [cytotoxic] and the IC50 [4] is reported as inconclusive: 18.3 µM [cytotoxic].

For CC(O)[C@@H]1NC(=O)[C@H](CCCCN)NC(=O)[C@@H](Cc2c[nH]c3ccccc23)NC(=O)[C@H](Cc2ccccc2)NC(=O)[C@@H](NC(=O)[C@H](N)Cc2ccccc2)CSSC[C@@H](C(=O)N[C@H](CO)[C@@H](C)O)NC1=O (stereo partly specified), the AC50 [8] was inconclusive: 0.00372 µM [cytotoxic], the outcome [9] was “inactive” and the outcome [10] was “inactive”.

With COCCCC/C(=N\OCCN)c1ccc(C(F)(F)F)cc1 the AC50 [8] was inconclusive: 23.5 µM [cytotoxic] and the outcome [9] was “inactive”.

For COCCCc1sc(-c2ccccc2)nc1C(=O)Nc1ccccc1-c1nc2cc(CN3CCCC3)cnc2s1, the AC50 [1] was inconclusive: 14.4 µM [cytotoxic], the AC50 [3] was inconclusive: 16.2 µM [cytotoxic] and the IC50 [4] was inconclusive: 14.4 µM.

Reference: PubChem BioAssay
